The whole screen tested about 400,000 compounds, of which about 5,500 (1.4%) were called active. This list was built around the results that the source calls inconclusive (neither active nor inactive); the mix of calls is not that of the screen. Calls come from the whole dose curve; as a rule, active = well fitted cell-killing curve with a large enough effect; inconclusive = small, poorly fitted or top-dose-only effect, or effect the other way; inactive = flat fitted curve, though single readings scatter. Potencies beside an inconclusive call are fits to weak or partial responses and may not hold up.
Assay: qHTS assay for MDR1-selective chemotherapeutics: Primary screen using the parental adenocarcinoma cell KB-3-1; note: nearly all actives have a fitted effect of over 60% in size
Conditions: KB-3-1 viability, CellTiter-Glo ATP luminescence, 72 h; activity change, negative = cytotoxic: at 46.1 µM (top of the series)
How it was run: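 Cytotoxicity measured as CellTiter-Glo luminescence after 72 h at 37 C. Compound titrations were pinned onto drug-naive KB-3-1 parental adenocarcinoma cells grown in DMEM with 10% FBS, and normalized data fitted to concentration-response curves.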
% is set by controls: 0 for no effect and ±100 for the full control effect; potency is the fitted concentration of half-maximal effect.

SMILES | activity change, negative = cytotoxic | Potency
CCCn1ccc2c(OCC(=O)Nc3ccc(C(F)(F)F)cc3)cccc2c1=O | inactive: -2.81% | 
CCOC(=O)C1=C(C)N=C2SC(C(=O)OC)=CC(=O)N2C1c1ccc(OC)cc1 (stereo unspecified) |  | inconclusive: 29.1 µM [cytotoxic, single point]
CCC(C)n1c(SCc2ccc([N+](=O)[O-])cc2)nc2ccsc2c1=O (stereo unspecified) |  | inconclusive: 16.4 µM [cytotoxic, single point]
CC[C@]1(C(=O)OC)[C@H]2C(=O)N(C)C(=O)[C@H]2[C@H]2CN=C(SCc3ccc(C)cc3)N21 |  | inconclusive: 29.1 µM [rising, single point]
CCOc1ccccc1N(CC)C(=O)c1cc2c(=O)n(CC)c3ccccc3c2s1 |  | inconclusive: 29.1 µM [cytotoxic, single point]
CNC(=O)c1cc(Cl)c(OC)c(OC)c1 |  | inconclusive: 0.58 µM [rising, partial curve]
O=C(Nc1ccncc1)C1CC(=O)N(c2ccc(F)cc2)C1 (stereo unspecified) |  | inconclusive: 0.0291 µM [cytotoxic, full curve]
CCC(C)(C)C1CCC(NC(=O)c2ccc(S(=O)(=O)N3CCOCC3)cc2)CC1 (stereo unspecified) |  | inconclusive: 20.6 µM [cytotoxic, single point]
COc1ccc(-c2ccc(C(c3c(C)[nH][nH]c3=O)c3c(C)[nH][nH]c3=O)o2)c([N+](=O)[O-])c1 |  | inconclusive: 20.6 µM [cytotoxic, single point]
O=C(O)c1ccccc1OCc1ccccc1Br |  | inconclusive: 0.411 µM [rising, full curve]
Cc1cc(N2CCN(C(=O)c3[nH]c(C(F)(F)F)nc3-c3ccccc3)CC2)c2ccccc2n1 |  | inconclusive: 3.26 µM [cytotoxic, full curve, poor fit]
O=C(Nc1cccs1)Nc1nnc([C@@H]2C[C@H](O)[C@@H](CO)O2)s1 |  | inconclusive: 16.4 µM [rising, partial curve, poor fit]
CN(c1ccc(C(=O)N2CCOCC2)cc1)S(C)(=O)=O |  | inconclusive: 0.0046 µM [rising, full curve, poor fit]
CN(C)CC(CCCCC(CN(C)C)C(=O)c1ccccc1)C(=O)c1ccccc1 (stereo unspecified) |  | inconclusive: 4.11 µM [cytotoxic, full curve, poor fit]
COc1ccc(C)cc1N(CC(=O)Nc1ccc(S(=O)(=O)N2CCOCC2)cc1)S(C)(=O)=O |  | inconclusive: 20.6 µM [rising, partial curve, poor fit]
COc1cccc(C2CC(c3ccc(C)cc3)=NN2C(=O)c2ccccc2F)c1OC (stereo unspecified) |  | inconclusive: 29.1 µM [cytotoxic, single point]

Random excerpt: two entries already listed.
SMILES | activity change, negative = cytotoxic | Potency
O=C(Nc1cccs1)Nc1nnc([C@@H]2C[C@H](O)[C@@H](CO)O2)s1 |  | inconclusive: 16.4 µM [rising, partial curve, poor fit]
CN(c1ccc(C(=O)N2CCOCC2)cc1)S(C)(=O)=O |  | inconclusive: 0.0046 µM [rising, full curve, poor fit]

— PubChem BioAssay AID1347075 (National Center for Advancing Translational Sciences (NCATS), 2019)
